Assay results: PMC4786218
Results are given in words; binding and its absence hold for the method and conditions named. For some of these results: In cells and extracts the contact can be indirect. Some results given as binding are weak or reduced against the parent protein; the word gives no strength. One block for each binder: values may come before it.

Assays:
[1] = molecular target: T1, full length Hairless (HFL) (Drosophila) (UniProt Q02308); assay: two-hybrid; qualitative pairwise yeast two-hybrid assay (blue coloured colonies); pEG DNA-binding fusions, pJG and VP16 activation domain fusions; empty vectors as mock
T1 sequence: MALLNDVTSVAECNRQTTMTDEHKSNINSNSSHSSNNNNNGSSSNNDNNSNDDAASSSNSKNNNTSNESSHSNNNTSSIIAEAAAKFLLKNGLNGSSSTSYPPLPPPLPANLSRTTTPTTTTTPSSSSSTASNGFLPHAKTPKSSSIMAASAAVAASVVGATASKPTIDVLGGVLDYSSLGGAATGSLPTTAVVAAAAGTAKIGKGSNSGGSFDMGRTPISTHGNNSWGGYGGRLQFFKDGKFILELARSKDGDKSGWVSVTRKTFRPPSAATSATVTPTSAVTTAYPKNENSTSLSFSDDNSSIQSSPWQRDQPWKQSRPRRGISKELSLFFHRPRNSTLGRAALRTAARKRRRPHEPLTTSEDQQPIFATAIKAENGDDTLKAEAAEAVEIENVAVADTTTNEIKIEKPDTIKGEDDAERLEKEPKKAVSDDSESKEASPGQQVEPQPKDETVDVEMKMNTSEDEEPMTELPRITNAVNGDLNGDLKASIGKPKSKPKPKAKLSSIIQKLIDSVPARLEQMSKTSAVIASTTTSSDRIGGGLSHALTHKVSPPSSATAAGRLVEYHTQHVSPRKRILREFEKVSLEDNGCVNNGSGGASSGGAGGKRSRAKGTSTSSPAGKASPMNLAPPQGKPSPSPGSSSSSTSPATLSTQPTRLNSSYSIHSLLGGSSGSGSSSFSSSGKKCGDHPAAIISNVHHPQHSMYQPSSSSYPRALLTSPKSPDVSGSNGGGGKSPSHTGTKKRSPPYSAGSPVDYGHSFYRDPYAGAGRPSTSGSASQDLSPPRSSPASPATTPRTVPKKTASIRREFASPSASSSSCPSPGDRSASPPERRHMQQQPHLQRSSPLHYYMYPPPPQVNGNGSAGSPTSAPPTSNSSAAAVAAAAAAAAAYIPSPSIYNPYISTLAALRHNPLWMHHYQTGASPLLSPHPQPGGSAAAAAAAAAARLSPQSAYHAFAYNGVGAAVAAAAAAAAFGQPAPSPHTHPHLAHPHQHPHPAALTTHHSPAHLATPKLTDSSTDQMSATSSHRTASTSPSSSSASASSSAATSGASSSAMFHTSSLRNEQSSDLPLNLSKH

[2] = molecular target: T2, Hairless protein, endogenous in embryos (Drosophila (endogenous in wild type embryos)) (UniProt Q02308); assay: co-IP; protein extracts of approximately 500 wild type embryos; IP with rabbit anti-Hairless A or guinea pig anti-CycG antiserum, Western blot with rat antisera; mock without primary antiserum
T2 sequence: T1 sequence

[3] = molecular target: T3, Cyclin G protein, endogenous in embryos (Drosophila (endogenous in wild type embryos)) (UniProt Q95TJ9); assay: as above
T3 sequence: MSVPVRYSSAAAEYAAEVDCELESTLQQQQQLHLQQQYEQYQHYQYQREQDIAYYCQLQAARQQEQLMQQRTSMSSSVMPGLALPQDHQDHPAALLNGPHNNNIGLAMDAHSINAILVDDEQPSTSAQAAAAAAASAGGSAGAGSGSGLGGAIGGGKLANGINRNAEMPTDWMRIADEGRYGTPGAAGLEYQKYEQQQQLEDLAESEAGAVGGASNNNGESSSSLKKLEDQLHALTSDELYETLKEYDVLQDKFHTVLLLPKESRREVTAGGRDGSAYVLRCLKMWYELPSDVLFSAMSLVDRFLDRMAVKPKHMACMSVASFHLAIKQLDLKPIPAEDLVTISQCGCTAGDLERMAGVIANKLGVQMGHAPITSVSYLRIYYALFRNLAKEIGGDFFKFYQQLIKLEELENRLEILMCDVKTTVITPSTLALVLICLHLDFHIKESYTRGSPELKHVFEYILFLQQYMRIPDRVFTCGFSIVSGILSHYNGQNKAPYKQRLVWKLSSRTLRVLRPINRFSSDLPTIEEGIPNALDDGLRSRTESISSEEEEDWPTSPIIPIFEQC

B3: Hairless protein, endogenous in embryos (protein, UniProt Q02308 1-1077)
chain: T1 sequence
binding [3]: binds

B4: CycG deletion construct 1-215 (domain or fragment, UniProt Q95TJ9 1-215)
chain: MSVPVRYSSAAAEYAAEVDCELESTLQQQQQLHLQQQYEQYQHYQYQREQDIAYYCQLQAARQQEQLMQQRTSMSSSVMPGLALPQDHQDHPAALLNGPHNNNIGLAMDAHSINAILVDDEQPSTSAQAAAAAAASAGGSAGAGSGSGLGGAIGGGKLANGINRNAEMPTDWMRIADEGRYGTPGAAGLEYQKYEQQQQLEDLAESEAGAVGGAS
binding [1]: no binding

More lines, now with the values ahead:

binding [1]: binds
B1: CycG deletion construct 215-566 (domain or fragment, UniProt Q95TJ9 215-566)
chain: SNNNGESSSSLKKLEDQLHALTSDELYETLKEYDVLQDKFHTVLLLPKESRREVTAGGRDGSAYVLRCLKMWYELPSDVLFSAMSLVDRFLDRMAVKPKHMACMSVASFHLAIKQLDLKPIPAEDLVTISQCGCTAGDLERMAGVIANKLGVQMGHAPITSVSYLRIYYALFRNLAKEIGGDFFKFYQQLIKLEELENRLEILMCDVKTTVITPSTLALVLICLHLDFHIKESYTRGSPELKHVFEYILFLQQYMRIPDRVFTCGFSIVSGILSHYNGQNKAPYKQRLVWKLSSRTLRVLRPINRFSSDLPTIEEGIPNALDDGLRSRTESISSEEEEDWPTSPIIPIFEQC

binding [2]: binds
B2: Cyclin G protein, endogenous in embryos (protein, UniProt Q95TJ9 1-566)
chain: T3 sequence
